# Measured values published in PubChem BioAssay AID540256 (National Center for Advancing Translational Sciences (NCATS), 2011).
# Hit rate of the full screen: of about 300,000 compounds, about 3,700 (1.2%) were called active. The shares of active, inactive and inconclusive entries below differ from those in the screen. Calls follow the shape of the full dose curve; tested in HEK293 cells. Where the call is inconclusive, the potency comes from a doubtful curve fit.
# Assay: qHTS for Inhibitors of binding or entry into cells for Lassa Virus; also: nearly all actives have a fitted effect of over 50% in size
# Settings: Lassa virus pseudotype entry inhibition, cell reporter; series mostly up to 37.9 µM
# Potency is read from the fitted curve at half-maximal effect.
row,SMILES,Potency
1,CNC(=O)c1c(NC(=O)C2=COCCO2)sc2c1CCC(C)C2 (stereo not given),"inconclusive: 35.5 µM [inhibitor, single point]"
2,O=C(NCCC1CCCCN1S(=O)(=O)c1ccccc1)C(=O)NCc1ccc(F)cc1 (stereo not given),inactive
3,CN(Cc1ccccc1)C(=O)c1ccc(CSc2nc3cccnc3n2Cc2ccccc2)cc1,"inconclusive: 17.8 µM [inhibitor, single point]"
4,Cc1cc(NC(=O)c2cccc(COc3ccc(Br)cc3)c2)no1,active: 13 µM
5,O=C(/C=C/c1ccncc1)c1ccc(NC(=O)c2ccccc2F)cc1,"inconclusive: 3.98 µM [inhibitor, full curve, poor fit]"
6,CC(=O)Nc1nc2ccccc2n1CCOc1ccccc1Cl,"inconclusive: 29.1 µM [inhibitor, single point]"
7,c1ccc(-c2noc(CSc3nnc(Cc4cccs4)n3-c3ccccc3)n2)cc1,"inconclusive: 35.5 µM [inhibitor, single point]"
8,CN(C)CCNC(=O)C(=O)Nc1ccc2c(c1)N(S(=O)(=O)c1cccs1)CCC2,inactive
9,O=C(COc1ccccc1)Nc1nc(-c2cccs2)cs1,"inconclusive: 11.2 µM [inhibitor, single point]"
10,CCOC(=O)c1c(NC(=O)C2C3C=CC(C3)C2C(=O)O)sc2c1CC(C)(C)OC2 (stereo not given),inactive
11,Cn1c(CNC(=O)C(Cc2ccccc2)NC(=O)c2ccccc2)cc(=O)n(C)c1=O (stereo not given),"inconclusive: 1.41 µM [inhibitor, partial curve, poor fit]"
12,Cc1ccc(C(=O)OCc2cc(=O)n3nc(CC(C)C)sc3n2)cc1,inactive
13,CC(=O)NCc1cccc(C#Cc2cncnc2Nc2ccc(OCc3cccc(F)c3)c(Cl)c2)c1,"inconclusive: 31.5 µM [inhibitor, single point]"
14,COC(=O)c1ccc[n+](CC(=O)c2ccc(Br)cc2)c1,"inconclusive: 0.562 µM [activator, full curve, poor fit]"
15,COc1ccc(O)c(/C=N/NC(=S)Nc2cccc(S(=O)(=O)N(C)C)c2)c1,active: 4.61 µM
16,Cc1ccccc1CN1CCCNC1=O,inactive
17,Cc1cccc(Cc2cnc(N3C(=N)SC(c4ccccc4)C3=O)s2)c1 (stereo not given),"inconclusive: 29.1 µM [inhibitor, single point]"
18,Cc1cc(Cl)ccc1OCC(=O)NCC(c1cccs1)N1CCOCC1 (stereo not given),"inconclusive: 28.2 µM [inhibitor, single point]"
19,Cc1ccc(C)n1C1CCS(=O)(=O)C1 (stereo not given),inactive
20,COc1cccc(CNCc2c(C(=O)O)n(Cc3ccc(C)cc3)c3cc(C)ccc23)c1OC,"inconclusive: 25.1 µM [inhibitor, single point]"
21,CN(C)CCC1(C2=CCCC2)CC/C(=C/c2ccc(Cl)cc2)C1=O (stereo not given),active: 12.6 µM
22,S=C(c1ccc(-c2cccc(Cl)c2)o1)N1CCOCC1,"inconclusive: 1.64 µM [activator, full curve]"
23,CCC1CCCCN1CCCNC(=O)c1ccc2c(c1)N(Cc1cccc(Cl)c1)C(=O)c1ccccc1S2(=O)=O (stereo not given),"inconclusive: 17.8 µM [inhibitor, single point]"
24,CCC(C)[C@H](NC(=O)NCc1cccs1)C(=O)O (stereo not given in full),"inconclusive: 12.6 µM [activator, partial curve, poor fit]"

row,SMILES,Potency
1,O=C(Nc1nc(-c2ccccn2)cs1)c1cc2ccccc2o1,"inconclusive: 35.5 µM [inhibitor, single point]"
2,CC(=O)c1ccc(NC(=O)c2sc(-n3nc(C)c(Cc4ccc5c(c4)OCO5)c3C)nc2C)cc1,inactive
3,CCCCCC(C)NC(=S)NC(=O)c1cc(S(=O)(=O)N2CCOCC2)ccc1C (stereo not given),"inconclusive: 2.82 µM [inhibitor, single point]"
4,Nc1c(N(CCC2=CCCCC2)C(=O)Cc2ccc(F)cc2)c(=O)[nH]c(=O)n1Cc1ccccc1,"inconclusive: 35.5 µM [inhibitor, single point]"
5,O=C(Nc1cccnc1)c1ccc(N2CCCC2)c([N+](=O)[O-])c1,inactive
6,Cc1c(C(=O)O)oc2c(F)cccc12,inactive
7,c1ccc(Oc2ccc(-c3ccnc4nc(N5CCOCC5)nn34)cc2)cc1,"inconclusive: 2 µM [inhibitor, partial curve, poor fit]"
8,O=S(=O)(c1ccccc1)N1CCN(C(=S)Nc2ccc(F)cc2)CC1,inactive
9,CCOc1ccc(N(C(=O)Nc2ccccc2)C2=NCCC2)cc1,"inconclusive: 13 µM [inhibitor, partial curve, poor fit]"
10,C=CCNCCOCCOc1ccc(C)cc1[N+](=O)[O-],"inconclusive: 16.4 µM [activator, single point]"
11,O=C1NC2(c3ccccc3)NC(=O)NC2(c2ccccc2)N1 (stereo not given),"inconclusive: 1.26 µM [inhibitor, single point]"
12,CC1CCN(c2ccc(C(=O)OCC(=O)NCCN3C(=O)CSC3=O)cc2[N+](=O)[O-])CC1,inactive
13,O=C1Nc2ccccc2/C1=C\c1cccn1-c1ccc(OC(F)(F)F)cc1,inactive
14,COc1ccccc1C(=O)NCC(=O)NC(C)CCc1ccccc1 (stereo not given),"inconclusive: 4.47 µM [inhibitor, single point]"
15,COc1ccc(CNC(=O)c2ccc(CS(=O)Cc3cccc(Cl)c3)o2)cc1 (stereo not given),"inconclusive: 11.2 µM [inhibitor, partial curve, poor fit]"
16,Cc1c(NS(=O)(=O)c2ccc(C(C)(C)C)cc2)c(=O)n(-c2ccccc2)n1C,inactive
17,Clc1ccccc1-c1nc2ccccc2[nH]1,"inconclusive: 0.562 µM [inhibitor, partial curve, poor fit]"
18,COc1ccccc1CN1CCC(CNC(=O)c2cnn(-c3cccc(Cl)c3)c2C2CCN(C(=O)OC(C)(C)C)CC2)CC1,"inconclusive: 14.1 µM [inhibitor, partial curve, poor fit]"
19,CC(=O)N1CCc2cc(Br)cc(S(=O)(=O)CCC(=O)NCc3ccc(F)cc3)c21,"inconclusive: 2.51 µM [activator, full curve]"
20,CC(C)c1ccc(N(CC(=O)N/N=C/c2ccc(OC3CSC3)cc2)S(=O)(=O)c2ccccc2)cc1,"inconclusive: 11.2 µM [inhibitor, partial curve]"
21,O=C(CCNS(=O)(=O)c1ccc2c(c1)CCN2C(=O)C1CC1)Nc1ccc(Cl)cc1,inactive
22,C=CCc1c(C)nc(C)nc1N/N=C/c1ccccc1O,"inconclusive: 20 µM [inhibitor, partial curve, poor fit]"
23,COc1cn(CC(=O)Nc2ccc(C)cc2)c(CN2CCCCC2)cc1=O,inactive
24,CC1CCCN(C(=O)COC(=O)c2cc([N+](=O)[O-])ccc2N2CCOCC2)C1 (stereo not given),inactive

row,SMILES,Potency
1,Cc1cccc(C)c1NC(=O)CCSCCc1ccccn1,inactive
2,Cc1cc(Cl)ccc1OCC(=O)NCc1ccncc1,inactive
3,Cc1cccc(C)c1NC(=O)C(C)N (stereo not given),"inconclusive: 5.8 µM [inhibitor, single point]"
4,COc1ccc(OCC(=O)N2CCN(C(=O)c3ccc(OC)c(OC)c3)CC2)cc1,inactive
5,COP(=O)(OC)c1nc(-c2cccc3ccccc23)oc1NCCc1ccccc1,"inconclusive: 25.1 µM [inhibitor, single point]"
6,CN1CCN(c2nc3c(c(=O)n(C)c(=O)n3C)n2Cc2cccc3ccccc23)CC1,inactive
7,COC(=O)c1[nH]c2ccc(C)cc2c1NC(=O)CN1CCCC(C)(C)C1,"inconclusive: 35.5 µM [inhibitor, single point]"
8,Cc1cc(C)cc(NCc2nnc3n2CCCCC3)c1,inactive
9,CCCN(C(=O)c1ccc2c(=O)n3c(nc2c1)CCCCC3)c1cccc(Cl)c1,inactive
10,CCOC(=O)c1cc2nc(OCC)nc(OCC)c2[nH]1,"inconclusive: 35.5 µM [activator, single point]"
11,Fc1ccc(Nc2ncnc3ccccc23)cc1,inactive
12,CC(=O)c1ccc(NC(=O)c2cc(C)nc3ccccc23)cc1,"inconclusive: 11.2 µM [activator, partial curve]"
13,COc1ccc(COC(=O)N/C=C/c2ccco2)cc1,active: 1.16 µM
14,COc1ccc(-c2coc3cc4oc(=O)c5ccccc5c4cc23)cc1F,"inconclusive: 0.631 µM [inhibitor, partial curve, poor fit]"
15,c1ccc(-c2cc(-c3ccccc3)ncn2)cc1,"inconclusive: 5.62 µM [activator, single point]"
16,C/C(=N\NC(=O)c1ccc(Cl)cc1)c1ccc(Br)s1,"inconclusive: 1.64 µM [inhibitor, partial curve, poor fit]"
17,Oc1ccc(/C=N/Nc2ccc(C(F)(F)F)cn2)cc1O,"inconclusive: 3.16 µM [inhibitor, full curve, poor fit]"
18,CN(C)C(=O)c1ccc(N=Nc2c(O)c3ccccc3[nH]c2=O)cc1,"inconclusive: 35.5 µM [inhibitor, single point]"
19,COc1cc(C(=O)Nc2cc(C)nn2-c2ccccc2)cc(OC)c1OC,"inconclusive: 6.31 µM [activator, partial curve, poor fit]"
20,CSc1ccc(CCNC(=O)Cn2ncc3c([nH]c4ccccc43)c2=O)cc1,"inconclusive: 14.1 µM [activator, single point]"
21,CCCCOc1ccc(NC(=S)Nc2cc(C)nc(SCCCC)n2)cc1,"inconclusive: 3.16 µM [inhibitor, single point]"
22,CCOC(=O)c1cc2c(=O)n3ccccc3nc2n(CCOC)c1=NC(=O)c1c(-c2c(F)cccc2Cl)noc1C,"inconclusive: 8.91 µM [inhibitor, partial curve, poor fit]"

# In another format: results already given.
row	SMILES	Potency
16	C/C(=N\NC(=O)c1ccc(Cl)cc1)c1ccc(Br)s1	inconclusive: 1.64 µM [inhibitor, partial curve, poor fit]
17	Oc1ccc(/C=N/Nc2ccc(C(F)(F)F)cn2)cc1O	inconclusive: 3.16 µM [inhibitor, full curve, poor fit]
18	CN(C)C(=O)c1ccc(N=Nc2c(O)c3ccccc3[nH]c2=O)cc1	inconclusive: 35.5 µM [inhibitor, single point]
19	COc1cc(C(=O)Nc2cc(C)nn2-c2ccccc2)cc(OC)c1OC	inconclusive: 6.31 µM [activator, partial curve, poor fit]
20	CSc1ccc(CCNC(=O)Cn2ncc3c([nH]c4ccccc43)c2=O)cc1	inconclusive: 14.1 µM [activator, single point]
